# Paper PMC4712875
# Protein sequences, listed by entry. Tags and fused reporters are not part of them. Lines headed by an entry give the natural chain unless they say otherwise; changes in a name come on top. Residues count along the entry.
# UniProt P22607, residues 23-806: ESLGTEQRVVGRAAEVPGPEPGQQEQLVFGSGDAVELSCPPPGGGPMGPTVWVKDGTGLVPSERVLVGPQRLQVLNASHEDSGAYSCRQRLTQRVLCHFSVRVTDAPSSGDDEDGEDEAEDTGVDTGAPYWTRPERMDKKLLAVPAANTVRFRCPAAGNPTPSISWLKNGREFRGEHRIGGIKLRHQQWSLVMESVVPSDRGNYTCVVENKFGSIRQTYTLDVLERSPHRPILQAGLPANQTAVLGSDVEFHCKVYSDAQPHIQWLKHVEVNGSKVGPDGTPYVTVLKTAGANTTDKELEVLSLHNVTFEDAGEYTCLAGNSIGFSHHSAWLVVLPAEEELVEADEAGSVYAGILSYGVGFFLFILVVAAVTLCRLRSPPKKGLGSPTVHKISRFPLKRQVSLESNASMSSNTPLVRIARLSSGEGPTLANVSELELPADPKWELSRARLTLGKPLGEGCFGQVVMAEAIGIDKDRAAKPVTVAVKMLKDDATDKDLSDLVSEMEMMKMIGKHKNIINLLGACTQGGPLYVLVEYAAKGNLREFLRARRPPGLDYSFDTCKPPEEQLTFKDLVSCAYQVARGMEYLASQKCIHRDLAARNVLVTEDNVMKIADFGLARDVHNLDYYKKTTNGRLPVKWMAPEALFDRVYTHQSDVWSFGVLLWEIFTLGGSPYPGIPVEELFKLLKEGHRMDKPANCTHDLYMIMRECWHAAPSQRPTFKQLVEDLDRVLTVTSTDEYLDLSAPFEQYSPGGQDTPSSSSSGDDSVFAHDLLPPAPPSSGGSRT
# UniProt P43021: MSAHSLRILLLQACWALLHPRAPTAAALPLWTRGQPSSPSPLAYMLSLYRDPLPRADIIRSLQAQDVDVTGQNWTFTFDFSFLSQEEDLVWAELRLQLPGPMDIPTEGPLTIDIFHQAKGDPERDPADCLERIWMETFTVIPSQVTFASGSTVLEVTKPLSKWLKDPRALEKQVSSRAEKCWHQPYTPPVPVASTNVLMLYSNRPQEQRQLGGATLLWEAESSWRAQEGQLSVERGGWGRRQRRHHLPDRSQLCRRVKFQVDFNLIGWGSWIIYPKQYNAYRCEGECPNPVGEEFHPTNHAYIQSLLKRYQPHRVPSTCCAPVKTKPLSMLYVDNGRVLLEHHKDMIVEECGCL
# No constants are given. Whether binding was seen depends on the method and setting. In cells and extracts the contact can be indirect. Binding can be weak; no strength is given.
# Target: FGFR3-HA (UniProt P22607)
# Experiment: co-IP; HEK293T co-transfected with wild-type mouse Nodal and FGFR3; antibody of the IP not told for this experiment
substance,measurement,value
proNodal made from wild-type mouse Nodal (uncleaved precursor) (from UniProt P43021) (ligand),binding,binds
